From PubChem BioAssay AID504834 (National Center for Advancing Translational Sciences (NCATS), 2011)
About 22,000 (6.9%) of roughly 320,000 compounds were called active. The shares of active, inactive and inconclusive entries below differ from those in the screen. The call rests on the fitted dose curve; in most records, active means well fitted inhibition curve with a large enough effect; inconclusive means small, poorly fitted or top-dose-only effect, or another doubt; inactive means no such curve, though single readings can be large or run the other way. Potencies of inconclusive entries are doubtful fits and often do not repeat.

Experiment: Primary qHTS for delayed death inhibitors of the malarial parasite plastid, 96 hour incubation
Conditions: P. falciparum luciferase reporter growth; series mostly up to 28.7 µM; activity change, negative = inhibition: at the top concentration
Summary of the method: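 Two parasite generations (96 h, 37 C, 5% CO2) of compound exposure in infected erythrocytes (0.05% parasitemia, 2% hematocrit). Luciferase-reporter P. falciparum; decreased luminescence indicates inhibited growth, aimed at apicoplast-acting delayed death.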
On the % scale 0 is the no-effect control and ±100 the full control effect; potency means the concentration at half of the fitted maximal effect.

Q: With CC1CCc2c(sc(NC(=O)CSc3nc(N)cc(=O)[nH]3)c2C(N)=O)C1 (configuration not stated) as the molecule, how does the “activity change, negative = inhibition” value read?
A: inactive: 12.4%

Q: Which “activity change, negative = inhibition” value does the source give for COc1ccc(-c2nc3c(c(SCC(=O)N4CCOCC4)n2)Cc2c(CO)cnc(C)c2O3)cc1 here?
A: inactive: 14%

Q: For COc1cc(OC)cc(C(=O)NC(C)CCc2ccccc2)c1 (configuration not stated), which Potency is on record?
A: inconclusive: 0.104 µM [inhibitor, full curve, poor fit]

Q: For O=C(OCc1ccc([N+](=O)[O-])cc1)C1CC(=O)N(Cc2ccccc2Cl)C1 (configuration not stated), which “activity change, negative = inhibition” value is on record?
A: inactive: 58.7%

Q: Which Potency does the source give for CN(C)S(=O)(=O)c1ccc(Nc2ccc(-c3ccc4c(c3)OCCO4)nn2)cc1 here?
A: active: 5.86 µM

Q: Which Potency does the source give for Cc1ccc(NC(=O)C2CC(=O)N(c3ccc4c(c3)OCCO4)C2)cc1S(=O)(=O)N1CCCCCC1 (configuration not stated) here?
A: inconclusive: 13.1 µM [inhibitor, partial curve, poor fit]

Q: With COCCCN1C(=O)C(=O)/C(=C(/O)c2ccc(S(=O)(=O)N3CCOCC3)cc2)C1c1cccc(Cl)c1 (configuration not stated) as the molecule, how does the “activity change, negative = inhibition” value read?
A: inactive: -1.83%

Q: For CCCCn1cnc2c(c(-c3ccccc3)c(-c3ccccc3)n2Cc2ccco2)c1=N, which Potency is on record?
A: active: 2.33 µM

Q: For Cc1ccc2c(c1)C1CN(C)CCC1N2C(=O)c1ccc(Br)o1 (configuration not stated), which “activity change, negative = inhibition” value is on record?
A: inactive: 9.12%

Q: With CCCCc1nc(Cl)c(C#N)c2c1CSC(C)(C)C2 as the molecule, how does the “activity change, negative = inhibition” value read?
A: inactive: 18%

Q: For CC(C)(O)CC[C@@H](O)[C@](C)(O)C1CC[C@@]2(O)C3=CC(=O)[C@]4(O)C[C@@H](O)[C@@H](O)C[C@]4(C)C3CC[C@]12C (some centres not stated), which “activity change, negative = inhibition” value is on record?
A: inactive: 11.2%

Q: For NC(=O)c1cccc(C(N)=O)n1, which Potency is on record?
A: active: 8.28 µM

Q: For COC(=O)C1C(O)=CC(=O)CC1C (configuration not stated), which Potency is on record?
A: inconclusive: 18.5 µM [inhibitor, single point]

Q: For COc1ccc(/C(O)=C/C(=O)C(=O)Nc2c(C)n(C)n(-c3ccccc3)c2=O)cc1, which Potency is on record?
A: active: 7.38 µM

Q: Which “activity change, negative = inhibition” value does the source give for O=C(NCc1ccco1)C1c2ccccc2Oc2ccccc21 here?
A: inactive: 1.66%

Q: Which “activity change, negative = inhibition” value does the source give for CCNC(=S)N/N=C/c1ccc(C#N)cc1 here?
A: inactive: 5.84%

Q: With CCOC(=O)c1[nH]c(C)c(C(=O)/C=C/c2ccc(C(=O)O)cc2)c1C as the molecule, how does the Potency read?
A: inconclusive: 11.7 µM [inhibitor, single point]

Q: For COc1ccc2c(c1)C(=O)C(=O)N2CCS(=O)(=O)c1ccccc1, which Potency is on record?
A: inconclusive: 20.8 µM [inhibitor, partial curve, poor fit]

Q: Which Potency does the source give for Cc1ccccc1NC(=S)NC(NC(=O)N(C)C)C(Cl)(Cl)Cl (configuration not stated) here?
A: inconclusive: 18.5 µM [inhibitor, single point]

Q: With COC(=O)c1cc2ccsc2n1Cc1ccccc1F as the molecule, how does the Potency read?
A: active: 11.7 µM

Q: Which Potency does the source give for CCn1c(CCNC(=O)c2ccc(OC)c(OC)c2)nc2ccccc21 here?
A: inconclusive: 2.62 µM [inhibitor, full curve]

Q: With O=C(NCc1ccccc1)c1nc2c(nnn2Cc2cccc(Cl)c2)c(=O)[nH]1 as the molecule, how does the Potency read?
A: active: 2.94 µM

Q: For CN(CC(=O)Nc1c(Cl)cccc1Cl)C(=O)Cn1[nH]c(=O)c2ccccc2c1=O, which Potency is on record?
A: inconclusive: 18.5 µM [inhibitor, single point]

Q: Which “activity change, negative = inhibition” value does the source give for O=C(CSc1ncccc1-c1nc2ccccc2[nH]1)Nc1ccc2c(c1)OCCO2 here?
A: inactive: -25.5%

Q: For COC(=O)C1(CC2CC(c3cccc(Br)c3)=NO2)CCN(C(=O)OC(C)(C)C)CC1 (configuration not stated), which “activity change, negative = inhibition” value is on record?
A: inactive: 0.194%

Q: For CCN1CCN(c2ccc(S(=O)(=O)N3CCCCC3)cc2NC(=O)c2cccc(Cl)c2)CC1, which Potency is on record?
A: active: 8.28 µM

Q: For Cc1cc(OCC(=O)Nc2ccccc2N2CCOCC2)c(C(C)C)cc1Cl, which Potency is on record?
A: inconclusive: 2.62 µM [inhibitor, full curve, poor fit]

Q: For CC1CN(O)C2CCc3c(no[n+]3[O-])C12O (configuration not stated), which “activity change, negative = inhibition” value is on record?
A: inactive: 34.3%

Q: Which “activity change, negative = inhibition” value does the source give for Cc1cccc(NC(=O)c2ccc3c(c2)CCN3S(C)(=O)=O)c1 here?
A: inactive: 8.82%

Q: For CCOC(=O)C1CCN(c2ccc(Cl)nn2)CC1, which Potency is on record?
A: inconclusive: 9.28 µM [inhibitor, single point]

Q: Which “activity change, negative = inhibition” value does the source give for COc1ccc(/C=N/NC(=O)c2cc(-c3cccnc3)nc3ccccc23)c(OC)c1 here?
A: inactive: 51.3%

Q: For COc1ccc(-n2c(/C=C/c3ccc4c(c3)OCO4)nc3ccccc3c2=O)cc1, which Potency is on record?
A: active: 9.28 µM

Q: Which Potency does the source give for COc1ccc(Br)cc1C(=O)NC(=S)Nc1ccc2[nH]c(=O)[nH]c2c1 here?
A: inconclusive: 11.7 µM [inhibitor, partial curve, poor fit]

Q: For CC(=O)c1c(C)nn(C(=O)c2cccs2)c1C, which “activity change, negative = inhibition” value is on record?
A: inactive: 7.28%

Q: With CC1(C)N=C(c2ccc(Cl)cc2)C(=O)N1 as the molecule, how does the “activity change, negative = inhibition” value read?
A: inactive: 5.43%

Q: Which Potency does the source give for CN1CCN(S(=O)(=O)c2ccc(N3CCN(c4ccccc4Cl)CC3)nc2)CC1 here?
A: inconclusive: 18.5 µM [inhibitor, single point]

Q: Which Potency does the source give for CCC(=O)Nc1cccc(NC(=O)c2ccccc2Cl)c1 here?
A: inconclusive: 10.4 µM [inhibitor, single point]

Q: For CCOC(=O)C(Cc1ccccc1)NC(=O)Cn1nnc(-c2ccc(SC)cc2)n1 (configuration not stated), which Potency is on record?
A: inconclusive: 0.522 µM [inhibitor, full curve, poor fit]

Q: For Cc1nn(-c2ccccc2)c(N2CCCC2)c1/C=N/NC(=O)c1cc(-c2ccccc2)nc2ccccc12, which Potency is on record?
A: inconclusive: 7.38 µM [inhibitor, partial curve, poor fit]

Q: With O=C(NC(=S)Nc1ccc(NC(=O)c2cccs2)cc1)c1ccco1 as the molecule, how does the Potency read?
A: inconclusive: 5.22 µM [inhibitor, partial curve]

Q: With CN(CC(=O)NCCCN1CCOCC1)S(=O)(=O)c1ccc(F)cc1 as the molecule, how does the “activity change, negative = inhibition” value read?
A: inactive: 1.26%

Q: With Cc1cc(/C=C(\C#N)C(N)=O)c(C)n1-c1ccc(N2CCOCC2)c([N+](=O)[O-])c1 as the molecule, how does the Potency read?
A: inconclusive: 7.38 µM [inhibitor, partial curve, poor fit]

Q: For O=C(CCCNS(=O)(=O)c1cccc2nsnc12)NCc1ccc(F)cc1, which Potency is on record?
A: inconclusive: 20.8 µM [inhibitor, partial curve, poor fit]

Q: For O=C(NCc1ccccc1F)c1cccs1, which Potency is on record?
A: inconclusive: 4.65 µM [inhibitor, partial curve]

Q: With Fc1ccccc1CSc1nc2ccccc2[nH]1 as the molecule, how does the “activity change, negative = inhibition” value read?
A: inactive: 237%

Q: For CN1CCN(Cc2nc3c(c(=O)[nH]c(=O)n3C)n2CCc2ccccc2)CC1, which Potency is on record?
A: inconclusive: 11.7 µM [inhibitor, single point]

Q: Which Potency does the source give for O=C(O)CCCC(=O)OCc1c(-c2ccccc2)ncc2ccccc12 here?
A: inconclusive: 7.38 µM [inhibitor, partial curve, poor fit]

Q: Which Potency does the source give for O=C(NCCNS(=O)(=O)c1ccccc1)c1cc(OCC(F)(F)F)ccc1OCC(F)(F)F here?
A: inconclusive: 0.0026 µM [inhibitor, full curve, poor fit]

Q: For COc1ccc(NC(=O)c2cccs2)cc1, which Potency is on record?
A: inconclusive: 11.7 µM [inhibitor, single point]

Q: With CCNc1nc(NCC)nc(N(CC)C(N)=S)n1 as the molecule, how does the “activity change, negative = inhibition” value read?
A: inactive: -18.8%

Q: Which Potency does the source give for COc1cc(C(=O)N2CCN(c3cccc(C)c3C)CC2)cc(OC)c1OC here?
A: active: 10.4 µM

Q: With COc1ccc(NS(=O)(=O)c2cc(NC(=O)c3ccc(C)s3)ccc2N2CCOCC2)cc1 as the molecule, how does the Potency read?
A: active: 13.1 µM

Q: Which Potency does the source give for CC(=O)Oc1ccc(N2C(=O)C3C(C2=O)C2C=CC3C23CC3)cc1[N+](=O)[O-] (configuration not stated) here?
A: inconclusive: 3.29 µM [inhibitor, full curve]

Q: Which “activity change, negative = inhibition” value does the source give for CNC(=O)CSc1nnc(-c2ccc(S(=O)(=O)N3CCCC3)cc2)n1-c1cccc(C)c1C here?
A: inactive: -10.3%

Q: With C/C(=N/Nc1nc(-c2ccccc2)cc(-c2ccccc2)n1)c1ccc(N)cc1 as the molecule, how does the Potency read?
A: inconclusive: 5.22 µM [inhibitor, partial curve, poor fit]

Q: With COc1ccc(S(=O)(=O)Cc2ccc(C(=O)NCCc3ccc(S(N)(=O)=O)cc3)o2)cc1 as the molecule, how does the Potency read?
A: inconclusive: 8.28 µM [inhibitor, partial curve]

Q: For CCN(Cc1ccc(NC(C)=O)cc1)CC1CCCN(CCc2cccc(OC)c2)C1 (configuration not stated), which Potency is on record?
A: active: 11.7 µM

Q: Which Potency does the source give for S=C(NCCSCc1c(Cl)cccc1Cl)Nc1ccccc1 here?
A: inconclusive: 14.7 µM [inhibitor, partial curve, poor fit]

Q: With CCn1nc(C(=O)N2CCN(Cc3nc4ccccc4s3)CC2)c2ccccc2c1=O as the molecule, how does the “activity change, negative = inhibition” value read?
A: inactive: 47.6%

Q: With Cc1ccccc1NS(=O)(=O)c1ccc(NC(=O)c2ccco2)cc1 as the molecule, how does the “activity change, negative = inhibition” value read?
A: inactive: 3.27%

Q: With C[C@]12CC[C@H](O)CC1=CCC1C2CC[C@]2(C)C(=O)CC[C@@H]12 (some centres not stated) as the molecule, how does the Potency read?
A: inconclusive: 4.26 µM [inhibitor, partial curve]

Q: Which Potency does the source give for COc1ccc2nc(SCC(=O)NC(C)c3ccccc3)[nH]c2c1 (configuration not stated) here?
A: inconclusive: 18.5 µM [inhibitor, single point]

Q: With CCCCCCc1nc(C(N)=O)c2[nH]c(=O)n(-c3ccc(OC)cc3OC)c2n1 as the molecule, how does the Potency read?
A: inconclusive: 5.86 µM [inhibitor, partial curve, poor fit]

Q: Which Potency does the source give for O=[N+]([O-])c1ccc(N2CCN(S(=O)(=O)c3ccc4ccccc4c3)CC2)cc1NCc1ccco1 here?
A: inconclusive: 2.62 µM [inhibitor, full curve, poor fit]

Q: With COc1ccc(-n2nc(C(=O)NCC(=O)N3CCCCCC3)c3ccccc3c2=O)cc1OC as the molecule, how does the Potency read?
A: active: 2.94 µM

Q: Which Potency does the source give for COC(=O)c1sccc1S(=O)(=O)NC(C)c1cnn(-c2ccc(OC)cc2)c1C (configuration not stated) here?
A: inconclusive: 2.62 µM [inhibitor, single point]

Q: Which Potency does the source give for N#C/C(N)=C(/N)C#N here?
A: inconclusive: 16.5 µM [inhibitor, single point]

Q: For CN(CC(=O)Nc1ccc(Cl)cc1)C(=O)CCC1CCCC1, which “activity change, negative = inhibition” value is on record?
A: inactive: 1.65%

Q: With COc1ccccc1NC(=S)NCc1cccnc1 as the molecule, how does the Potency read?
A: inconclusive: 11.7 µM [inhibitor, partial curve, poor fit]

Q: With Cc1ccsc1C(=O)C1CCCN(Cc2ccccc2O)C1 (configuration not stated) as the molecule, how does the “activity change, negative = inhibition” value read?
A: inactive: 1.62%

Q: For COc1ccc(N2CCCn3c2nc2c3c(=O)n(Cc3ccccc3F)c(=O)n2C)cc1, which Potency is on record?
A: inconclusive: 3.29 µM [inhibitor, full curve, poor fit]

Q: For Cc1nc2cc(-c3cccc(F)c3)nn2c(N2CCN(C(=O)c3ccco3)CC2)c1C, which Potency is on record?
A: inconclusive: 18.5 µM [inhibitor, single point]
